From PMC10578927, “An unconventional gatekeeper mutation sensitizes inositol hexakisphosphate kinases to an allosteric inhibitor” (eLife, 2023)

Assay: Redox activity, photometric surrogate assay (DTT/resazurin)
Conditions: for Conversion (%) / Z-score: Redox activity

SMILES	Conversion (%)	Z-score	redox-active (resazurin/DTT surrogate assay)
O=C(O)c1ccc2c(c1)C(=O)N(c1ccc(-c3nc4ccc(N5C(=O)c6ccc(C(=O)O)cc6C5=O)cc4[nH]3)cc1)C2=O [FMP-201300]	-0.0816	-0.225	neither redox-active
O=c1c(O)c(-c2ccc(O)c(O)c2)oc2cc(O)cc(O)c12 [compound 405356, quercetin, reference compound]	0.0343	0.674	
